Experimental data from the supplement of paper PMC10849652.
The list shows a part of the results. Residues, ends and D or L forms follow the SMILES beside them. *: point of attachment. Cbz = O=C(OCc1ccccc1)*

The chains behind the UniProt entries cited, without tags or fusion partners. Where a name states a change or a piece, a line headed by the entry shows the natural chain unless it says otherwise.
UniProt P23258, whole entry, looked up: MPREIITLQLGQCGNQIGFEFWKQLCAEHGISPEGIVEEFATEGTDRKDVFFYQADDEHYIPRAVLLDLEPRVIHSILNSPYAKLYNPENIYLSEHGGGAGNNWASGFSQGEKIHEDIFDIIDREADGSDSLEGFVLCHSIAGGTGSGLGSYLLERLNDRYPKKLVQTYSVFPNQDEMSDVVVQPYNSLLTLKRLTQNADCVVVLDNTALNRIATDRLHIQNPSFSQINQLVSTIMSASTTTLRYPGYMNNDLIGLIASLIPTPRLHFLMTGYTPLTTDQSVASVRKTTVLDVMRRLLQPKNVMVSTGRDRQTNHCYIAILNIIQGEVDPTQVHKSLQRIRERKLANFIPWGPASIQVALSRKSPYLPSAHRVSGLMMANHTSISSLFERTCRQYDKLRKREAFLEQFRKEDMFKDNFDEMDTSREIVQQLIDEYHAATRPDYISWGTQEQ
UniProt Q6IPR3: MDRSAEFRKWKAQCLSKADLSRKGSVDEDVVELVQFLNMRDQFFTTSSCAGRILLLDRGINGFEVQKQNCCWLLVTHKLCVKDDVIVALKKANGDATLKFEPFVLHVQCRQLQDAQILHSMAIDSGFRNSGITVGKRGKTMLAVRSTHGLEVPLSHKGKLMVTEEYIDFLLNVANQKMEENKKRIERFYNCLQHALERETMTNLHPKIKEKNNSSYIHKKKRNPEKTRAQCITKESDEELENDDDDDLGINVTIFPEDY
UniProt P63146, whole entry, looked up: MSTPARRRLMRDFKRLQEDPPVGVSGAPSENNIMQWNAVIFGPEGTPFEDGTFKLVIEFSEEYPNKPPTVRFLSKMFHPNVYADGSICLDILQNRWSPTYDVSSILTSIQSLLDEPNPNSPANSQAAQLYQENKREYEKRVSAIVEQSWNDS
UniProt Q9UGJ1, whole entry, looked up: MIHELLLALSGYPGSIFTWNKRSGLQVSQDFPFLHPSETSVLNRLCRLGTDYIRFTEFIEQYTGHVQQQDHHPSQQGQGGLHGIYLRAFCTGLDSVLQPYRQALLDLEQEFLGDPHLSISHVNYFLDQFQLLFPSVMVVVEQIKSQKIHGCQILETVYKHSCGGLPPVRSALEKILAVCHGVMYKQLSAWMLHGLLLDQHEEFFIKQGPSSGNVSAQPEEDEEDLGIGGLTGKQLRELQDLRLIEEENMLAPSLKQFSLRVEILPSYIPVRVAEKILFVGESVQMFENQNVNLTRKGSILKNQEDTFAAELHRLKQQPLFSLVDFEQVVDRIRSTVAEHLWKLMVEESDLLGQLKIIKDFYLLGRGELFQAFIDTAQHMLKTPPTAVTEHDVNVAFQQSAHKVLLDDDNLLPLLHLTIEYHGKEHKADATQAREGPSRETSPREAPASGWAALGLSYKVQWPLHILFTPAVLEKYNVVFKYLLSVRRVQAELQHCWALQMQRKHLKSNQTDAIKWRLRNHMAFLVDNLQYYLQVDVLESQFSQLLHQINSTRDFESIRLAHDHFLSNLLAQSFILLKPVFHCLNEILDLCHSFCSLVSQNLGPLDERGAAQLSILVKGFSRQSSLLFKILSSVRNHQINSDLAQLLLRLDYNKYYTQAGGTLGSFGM
UniProt O75896: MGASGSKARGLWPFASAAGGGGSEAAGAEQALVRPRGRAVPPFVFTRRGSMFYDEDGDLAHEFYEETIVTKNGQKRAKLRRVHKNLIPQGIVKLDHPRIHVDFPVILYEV
UniProt Q9NX01: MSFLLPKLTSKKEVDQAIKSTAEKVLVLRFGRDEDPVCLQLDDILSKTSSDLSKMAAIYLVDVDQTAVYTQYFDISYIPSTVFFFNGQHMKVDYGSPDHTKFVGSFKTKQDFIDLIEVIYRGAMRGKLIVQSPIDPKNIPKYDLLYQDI
UniProt Q6PGP7, whole entry, looked up: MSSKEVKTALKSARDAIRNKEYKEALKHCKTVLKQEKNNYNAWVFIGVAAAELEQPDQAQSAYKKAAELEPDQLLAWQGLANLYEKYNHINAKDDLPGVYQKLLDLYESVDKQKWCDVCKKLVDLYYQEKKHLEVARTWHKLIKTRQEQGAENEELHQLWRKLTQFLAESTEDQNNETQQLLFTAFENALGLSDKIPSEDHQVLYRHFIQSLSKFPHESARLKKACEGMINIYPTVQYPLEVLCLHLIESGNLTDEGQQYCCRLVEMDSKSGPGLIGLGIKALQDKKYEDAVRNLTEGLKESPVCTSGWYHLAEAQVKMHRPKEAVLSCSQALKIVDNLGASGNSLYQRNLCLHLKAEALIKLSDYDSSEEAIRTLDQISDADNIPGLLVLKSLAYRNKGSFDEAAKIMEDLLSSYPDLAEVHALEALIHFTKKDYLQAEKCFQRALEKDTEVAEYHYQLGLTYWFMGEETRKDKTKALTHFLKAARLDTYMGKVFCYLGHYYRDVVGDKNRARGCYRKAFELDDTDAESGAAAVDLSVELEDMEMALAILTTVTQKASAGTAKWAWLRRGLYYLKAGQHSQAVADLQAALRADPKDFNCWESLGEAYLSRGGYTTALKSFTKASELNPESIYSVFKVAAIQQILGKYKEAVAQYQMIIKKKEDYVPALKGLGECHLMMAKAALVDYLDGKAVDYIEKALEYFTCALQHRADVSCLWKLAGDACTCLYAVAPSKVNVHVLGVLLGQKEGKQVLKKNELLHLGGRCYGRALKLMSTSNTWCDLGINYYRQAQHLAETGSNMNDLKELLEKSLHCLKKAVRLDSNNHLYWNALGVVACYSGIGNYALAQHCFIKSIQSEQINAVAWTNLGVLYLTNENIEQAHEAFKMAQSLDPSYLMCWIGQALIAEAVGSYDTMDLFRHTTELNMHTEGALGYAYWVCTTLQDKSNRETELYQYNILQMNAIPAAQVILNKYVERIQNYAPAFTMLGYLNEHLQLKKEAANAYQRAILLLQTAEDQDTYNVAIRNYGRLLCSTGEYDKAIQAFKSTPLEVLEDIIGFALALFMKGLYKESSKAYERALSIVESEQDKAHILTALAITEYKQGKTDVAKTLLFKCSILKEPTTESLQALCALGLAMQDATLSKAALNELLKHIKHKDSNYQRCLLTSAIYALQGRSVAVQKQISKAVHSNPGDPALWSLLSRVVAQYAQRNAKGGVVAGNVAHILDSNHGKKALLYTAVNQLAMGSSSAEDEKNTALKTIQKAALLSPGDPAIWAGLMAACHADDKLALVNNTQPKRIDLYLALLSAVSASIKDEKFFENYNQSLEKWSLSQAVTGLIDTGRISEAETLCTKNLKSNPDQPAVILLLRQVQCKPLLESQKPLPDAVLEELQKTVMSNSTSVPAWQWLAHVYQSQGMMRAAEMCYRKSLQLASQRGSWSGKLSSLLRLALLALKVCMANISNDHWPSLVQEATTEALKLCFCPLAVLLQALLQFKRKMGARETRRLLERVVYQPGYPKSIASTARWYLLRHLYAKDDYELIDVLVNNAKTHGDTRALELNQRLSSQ
UniProt Q6PKC3: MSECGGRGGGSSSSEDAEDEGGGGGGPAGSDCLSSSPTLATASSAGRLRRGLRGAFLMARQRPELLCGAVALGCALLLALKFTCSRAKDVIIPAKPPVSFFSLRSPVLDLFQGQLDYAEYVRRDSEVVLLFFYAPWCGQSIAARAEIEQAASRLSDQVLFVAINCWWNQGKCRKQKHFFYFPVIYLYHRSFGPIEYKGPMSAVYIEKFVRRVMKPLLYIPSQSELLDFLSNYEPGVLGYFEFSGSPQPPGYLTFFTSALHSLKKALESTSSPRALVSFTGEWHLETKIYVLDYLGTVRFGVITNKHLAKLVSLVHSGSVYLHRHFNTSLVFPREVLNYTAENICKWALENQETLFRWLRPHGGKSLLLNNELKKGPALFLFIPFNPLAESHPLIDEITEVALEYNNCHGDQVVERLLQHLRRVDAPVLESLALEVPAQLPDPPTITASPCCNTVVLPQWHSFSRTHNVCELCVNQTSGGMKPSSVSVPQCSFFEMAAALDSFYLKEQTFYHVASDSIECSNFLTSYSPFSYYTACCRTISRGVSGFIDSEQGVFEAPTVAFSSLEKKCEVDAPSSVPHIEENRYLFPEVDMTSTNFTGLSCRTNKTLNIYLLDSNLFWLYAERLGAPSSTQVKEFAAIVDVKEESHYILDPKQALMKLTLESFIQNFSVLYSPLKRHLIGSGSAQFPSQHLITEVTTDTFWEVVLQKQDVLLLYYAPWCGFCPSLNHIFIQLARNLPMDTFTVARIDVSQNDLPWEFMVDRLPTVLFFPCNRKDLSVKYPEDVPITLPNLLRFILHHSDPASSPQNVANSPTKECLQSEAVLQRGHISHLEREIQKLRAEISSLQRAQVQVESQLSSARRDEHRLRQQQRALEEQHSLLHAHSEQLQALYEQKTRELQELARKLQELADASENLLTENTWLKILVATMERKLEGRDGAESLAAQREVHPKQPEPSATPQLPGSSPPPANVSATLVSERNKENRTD
UniProt O43156, whole entry, looked up: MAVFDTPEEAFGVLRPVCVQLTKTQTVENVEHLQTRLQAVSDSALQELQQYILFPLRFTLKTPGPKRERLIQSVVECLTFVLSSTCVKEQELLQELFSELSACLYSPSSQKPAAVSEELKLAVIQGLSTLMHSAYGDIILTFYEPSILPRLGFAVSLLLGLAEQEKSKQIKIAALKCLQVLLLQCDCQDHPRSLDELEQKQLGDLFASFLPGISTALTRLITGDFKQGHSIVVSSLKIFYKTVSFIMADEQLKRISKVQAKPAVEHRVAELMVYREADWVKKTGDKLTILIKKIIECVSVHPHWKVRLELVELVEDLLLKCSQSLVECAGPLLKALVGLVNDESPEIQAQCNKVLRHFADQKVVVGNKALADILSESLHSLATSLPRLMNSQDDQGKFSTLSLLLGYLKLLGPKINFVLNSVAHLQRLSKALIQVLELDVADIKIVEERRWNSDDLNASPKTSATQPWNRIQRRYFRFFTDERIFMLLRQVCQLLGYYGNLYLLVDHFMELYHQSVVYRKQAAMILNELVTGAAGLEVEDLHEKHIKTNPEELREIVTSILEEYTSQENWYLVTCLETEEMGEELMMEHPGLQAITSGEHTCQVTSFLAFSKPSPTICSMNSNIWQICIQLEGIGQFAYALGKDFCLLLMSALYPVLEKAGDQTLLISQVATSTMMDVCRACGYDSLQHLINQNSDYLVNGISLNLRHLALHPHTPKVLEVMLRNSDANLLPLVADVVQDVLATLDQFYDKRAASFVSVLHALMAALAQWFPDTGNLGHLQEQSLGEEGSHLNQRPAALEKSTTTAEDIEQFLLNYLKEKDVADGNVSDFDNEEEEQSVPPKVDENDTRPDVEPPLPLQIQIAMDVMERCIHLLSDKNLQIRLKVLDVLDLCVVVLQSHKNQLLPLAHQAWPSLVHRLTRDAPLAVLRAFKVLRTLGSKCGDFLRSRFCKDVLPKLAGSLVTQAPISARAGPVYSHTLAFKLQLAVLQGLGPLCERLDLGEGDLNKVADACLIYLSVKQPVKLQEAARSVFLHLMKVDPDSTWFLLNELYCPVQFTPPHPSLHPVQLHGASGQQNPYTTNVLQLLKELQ
UniProt Q01081: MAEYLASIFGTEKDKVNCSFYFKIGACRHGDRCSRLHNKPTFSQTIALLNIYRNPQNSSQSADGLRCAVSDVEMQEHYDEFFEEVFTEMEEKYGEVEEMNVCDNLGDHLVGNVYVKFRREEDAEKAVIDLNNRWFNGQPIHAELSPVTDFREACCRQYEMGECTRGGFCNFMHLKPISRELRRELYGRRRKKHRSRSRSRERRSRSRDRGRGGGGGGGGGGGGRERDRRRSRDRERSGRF
UniProt Q06418: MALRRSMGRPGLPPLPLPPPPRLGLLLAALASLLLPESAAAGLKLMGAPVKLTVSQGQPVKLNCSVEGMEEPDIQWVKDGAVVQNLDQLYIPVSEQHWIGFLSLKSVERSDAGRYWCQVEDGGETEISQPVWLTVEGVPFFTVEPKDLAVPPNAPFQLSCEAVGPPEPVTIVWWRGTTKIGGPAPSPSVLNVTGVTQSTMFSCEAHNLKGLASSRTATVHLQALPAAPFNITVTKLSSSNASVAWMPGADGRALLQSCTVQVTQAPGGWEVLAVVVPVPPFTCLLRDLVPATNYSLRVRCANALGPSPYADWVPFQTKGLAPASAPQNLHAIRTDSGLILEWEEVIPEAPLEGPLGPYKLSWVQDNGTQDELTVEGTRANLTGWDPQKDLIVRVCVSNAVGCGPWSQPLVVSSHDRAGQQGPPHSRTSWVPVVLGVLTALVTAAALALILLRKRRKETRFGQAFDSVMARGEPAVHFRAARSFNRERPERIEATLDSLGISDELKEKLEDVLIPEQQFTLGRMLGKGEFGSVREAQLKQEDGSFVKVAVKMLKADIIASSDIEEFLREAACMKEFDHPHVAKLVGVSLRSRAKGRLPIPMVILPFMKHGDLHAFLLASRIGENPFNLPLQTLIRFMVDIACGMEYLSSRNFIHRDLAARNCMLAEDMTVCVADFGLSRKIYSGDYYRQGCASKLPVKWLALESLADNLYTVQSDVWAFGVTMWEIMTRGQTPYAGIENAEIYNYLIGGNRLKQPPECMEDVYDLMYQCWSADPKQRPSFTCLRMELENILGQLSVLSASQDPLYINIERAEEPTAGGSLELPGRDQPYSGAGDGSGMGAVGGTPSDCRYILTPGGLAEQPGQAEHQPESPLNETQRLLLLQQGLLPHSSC

Assays:
Assay in all cases: log2 fold change, soluble protein after heating vs DMSO (PISA); higher = thermal stabilisation; K562 cells, 10 uM, 30 min; active = over 0.2 and 3.5 SD of the protein, either way, in both replicates (recomputed)
[1] = compound: C1COCCN1CCN2C3=CC=CC=C3N=C2NC(=O)C4=CC(=CC=C4)[N+](=O)[O-] [IRAK-1-4 Inhibitor I]
Summary of the method: (§1)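 K562 cells at 2×10^6 cells/mL were treated for 30 min with 10 μM compound, and aliquots were heated for 3 min over 48°C-58°C before pooling. Extraction used PBS with 0.5% NP-40 at 4°C, and soluble protein was the supernatant after 21,000xg for 90 min, measured by TMTpro 16plex LC-MS/MS with channel sums equalised. Thermal stability values, relative to control samples and from duplicates, are log2 fold changes.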

[2] = compound: C=CC(=O)N1CCC[C@@H](n2nc(-c3ccc(Oc4ccccc4)cc3)c3c(N)ncnc32)C1 [ibrutinib]
Summary of the method: as §1

[3] = compound: CC(=O)c1cnc2ccc(-c3cc(Cl)c(O)c(Cl)c3)nc2c1N[C@H]1CC[C@H](CN(C)C)CC1
Summary of the method: as §1

[4] = compound: CC(C)(C)Cn1c(N)nc2ccc(-c3[nH]c(C(C)(C)C)nc3-c3ccc(F)cc3)nc21 [ralimetinib]
Summary of the method: as §1

[5] = compound: CC(C)(O)CC(=O)NCCn1ccc2ncnc(Nc3ccc(Oc4cccc(C(F)(F)F)c4)c(Cl)c3)c21
Summary of the method: as §1

[6] = compound: CC(C)C1=C2N=C(C=C(N2N=C1)NCC3=CC=CC=C3)NCCCCCCN
Summary of the method: as §1

[7] = compound: CC(C)C[C@@H](C=O)NC(=O)[C@H](CC(C)C)NC(=O)[C@H](CC(C)C)NC(=O)OCc1ccccc1
Summary of the method: as §1

[8] = compound: CC(C)N(C[C@H]1O[C@@H](n2cnc3c(N)ncnc32)[C@H](O)[C@@H]1O)[C@H]1C[C@@H](CCc2nc3cc(C(C)(C)C)ccc3[nH]2)C1 [pinometostat]
Summary of the method: as §1

[9] = compound: CC1=C(C2=C(C=C1)C(=O)C3=CC=CC=C3N2CCCN)C
Summary of the method: as §1

[10] = compound: CC1=C(C(CC(=O)N1)C2=CC=C(C=C2)C(F)(F)F)C(=O)NC3=C(C=C4C(=C3)C=NN4)F
Summary of the method: as §1

Measured: log2 fold change

UBA52 (UniProt P62987)
inactive: [1] -0.098 | [2] 0.091 | [3] 0.21 | [4] 0.139 | [5] 0.107 | [6] 0.044 | [7] 0.147 | [8] 0.358 | [9] -0.532

TUBA8 (UniProt Q9NY65)
inactive: [1] -0.205 | [2] -0.05 | [3] 0.192 | [4] 0.143 | [5] 0.128 | [6] -0.144 | [7] 0.221 | [8] 0.512 | [10] 0.182 | [9] -0.16

UBA6
inactive: [1] -0.038 | [2] -0.01 | [3] -0.009 | [4] -0.002 | [5] -0.012 | [6] -0.044 | [7] -0.025 | [8] 0.004 | [9] 0.106

TUBGCP2 isoform 4 (UniProt Q9BSJ2)
inactive: [1] -0.076 | [2] 0.322 | [3] 0.01 | [4] 0.183 | [5] -0.127 | [6] -0.045 | [7] 0.18 | [8] 0.261 | [10] 0.047 | [9] 0.072

TUBG1 (UniProt P23258)
inactive: [1] -0.009 | [2] 0.02 | [3] 0.002 | [4] 0.004 | [5] 0 | [6] 0.164 | [7] 0.05 | [8] 0.024 | [10] 0.025 | [9] 0.051

TTC4 (UniProt O95801)
inactive: [1] -0.058 | [2] -0.031 | [3] -0.052 | [4] 0.168 | [5] -0.072 | [6] -0.119 | [7] 0.024 | [8] -0.015 | [9] 0

TYW3 (UniProt Q6IPR3)
inactive: [1] -0.004 | [2] -0.002 | [3] -0.047 | [4] -0.012 | [5] 0.057 | [6] 0.073 | [7] 0.036 | [8] 0.086 | [10] 0.094 | [9] 0.262

TTC38 (UniProt Q5R3I4)
active: [9] 0.801
inactive: [1] 0.129 | [2] -0.048 | [3] 0.023 | [4] 0.017 | [5] -0.204 | [6] -0.06 | [7] -0.195 | [8] 0.027

Fetched one by one from the list above (2):
TUBGCP2 isoform 4 (UniProt Q9BSJ2)
inactive: [1] -0.076 | [2] 0.322 | [3] 0.01 | [4] 0.183 | [5] -0.127 | [6] -0.045 | [7] 0.18 | [8] 0.261 | [10] 0.047 | [9] 0.072

TUBG1 (UniProt P23258)
inactive: [1] -0.009 | [2] 0.02 | [3] 0.002 | [4] 0.004 | [5] 0 | [6] 0.164 | [7] 0.05 | [8] 0.024 | [10] 0.025 | [9] 0.051

(further entries)

UBE2R2 (UniProt Q712K3)
inactive: [1] 0.066 | [2] -0.011 | [3] -0.124 | [4] -0.01 | [5] 0.011 | [6] -0.067 | [7] -0.014 | [8] -0.026 | [10] 0.043 | [9] -0.052

UBE2B (UniProt P63146)
inactive: [1] 0.028 | [2] 0.064 | [3] 0.005 | [4] -0.014 | [5] -0.026 | [6] -0.082 | [7] 0.008 | [8] 0.089 | [10] -0.069 | [9] 0.011

U2AF2 (UniProt P26368)
inactive: [1] -0.069 | [2] 0.029 | [4] 0.03 | [5] -0.011 | [6] -0.102 | [7] 0.028 | [8] 0.03 | [9] 0.192
active: [3] -0.313

TUBGCP4 (UniProt Q9UGJ1)
inactive: [1] -0.194 | [2] 0.332 | [3] 0.109 | [4] 0.194 | [6] -0.101 | [7] -0.005 | [8] 0.326 | [9] -0.005

TTF2 (UniProt Q9UNY4)
inactive: [1] -0.04 | [3] 0.061 | [4] 0.08 | [5] 0.067 | [6] -0.091 | [7] 0.115 | [8] 0.18 | [10] -0.05 | [9] 0.117

UBE3B (UniProt Q7Z3V4)
inactive: [1] -0.182 | [2] -0.019 | [3] -0.068 | [4] -0.296 | [5] -0.154 | [7] 0.001 | [8] 0.239 | [9] -0.188

TUSC2 (UniProt O75896)
inactive: [1] 0.088 | [2] 0.017 | [5] 0.072 | [6] 0.086 | [8] 0.017 | [10] 0.026

UBAP2L isoform 5 (UniProt Q14157)
inactive: [1] 0.053 | [2] 0.04 | [3] 0.017 | [4] -0.007 | [5] 0.003 | [6] 0.053 | [7] -0.012 | [8] -0.032 | [9] 0.068

TXNL4B (UniProt Q9NX01)
inactive: [1] 0.132 | [2] -0.065 | [3] -0.071 | [4] -0.057 | [6] -0.02 | [7] 0.074 | [8] -0.053 | [9] 0.067

TXNRD1 (UniProt Q16881)
inactive: [1] 0.064 | [2] -0.035 | [3] -0.062 | [4] -0.088 | [5] -0.049 | [6] -0.013 | [7] -0.03 | [8] -0.042 | [9] 0.077

TTC37 (UniProt Q6PGP7)
inactive: [1] 0.257 | [2] -0.067 | [3] 0.019 | [4] -0.068 | [5] 0.227 | [7] -0.3 | [8] 0.22

TTC7B isoform 2 (UniProt Q86TV6)
inactive: [1] -0.037 | [2] 0.149 | [3] -0.202 | [4] 0.042 | [6] -0.02 | [7] 0.037 | [8] -0.112 | [10] -0.019 | [9] 0.205

TXNDC11 (UniProt Q6PKC3)
inactive: [1] -0.113 | [2] -0.024 | [3] -0.003 | [4] -0.025 | [5] 0.036 | [6] -0.025 | [7] 0.024 | [8] -0.066 | [9] -0.002

TUBA4A (UniProt C9JJQ8)
inactive: [1] -0.203 | [2] -0.076 | [8] -0.121 | [9] -0.042

TTC13 (UniProt Q8NBP0)
inactive: [1] -0.018 | [3] 0.155 | [4] -0.006 | [6] -0.001 | [7] 0.04 | [8] 0.111 | [9] 0.14

TUT4 (UniProt Q5TAX3)
inactive: [1] 0.078 | [2] -0.029 | [4] 0.07 | [5] 0 | [6] -0.219 | [7] 0.086 | [8] 0.059 | [9] 0.104

UBE2K (UniProt D6RDM7)
inactive: [1] -0.059 | [2] -0.369 | [4] 0.072 | [5] -0.04 | [7] 0.005 | [8] 0.131 | [10] 0.006 | [9] 0.125

U2AF1L5 (UniProt P0DN76)
inactive: [1] 0.042 | [2] -0.032 | [3] -0.389 | [6] -0.19 | [8] 0.014 | [9] -0.067

TTC12 isoform 2 (UniProt Q9H892)
inactive: [1] -0.188 | [2] -0.099 | [4] -0.224 | [5] 0.107 | [6] 0.061 | [7] 0.038 | [8] 0.347 | [10] 0.251 | [9] 0.181

TYW1 (UniProt Q9NV66)
inactive: [1] -0.031 | [2] -0.043 | [3] -0.096 | [4] 0.044 | [5] 0 | [6] 0.03 | [7] -0.056 | [8] 0.005 | [9] 0.051

TTI1 (UniProt O43156)
inactive: [1] -0.012 | [2] 0.009 | [3] -0.065 | [4] 0.1 | [5] -0.113 | [6] -0.059 | [7] 0.016 | [8] 0.13 | [9] 0.074

UBE2J1 (UniProt Q9Y385)
inactive: [1] -0.447 | [2] 0.013 | [3] -0.077 | [4] -0.02 | [5] -0.106 | [6] -0.284 | [7] 0.188 | [8] 0.096 | [9] -0.047

U2AF1 isoform 2 (UniProt Q01081)
inactive: [1] -0.133 | [2] 0.073 | [4] 0 | [5] 0.042 | [6] -0.083 | [7] 0.022 | [8] -0.04 | [9] 0.169
active: [3] -0.519

UBAP2L isoform 1 (UniProt Q14157)
inactive: [1] 0.076 | [2] -0.006 | [3] 0.007 | [4] -0.025 | [5] 0.016 | [6] 0.103 | [7] 0.029 | [8] -0.031 | [9] 0.055

TYRO3 (UniProt Q06418)
inactive: [1] -0.029 | [2] -0.071 | [5] -0.036 | [8] 0.132 | [10] 0.148
